# Experimental data published in PubChem BioAssay (NCATS).
# The chains behind the UniProt entries cited, without tags or fusion partners. Where a name states a change or a piece, a line headed by the entry shows the natural chain unless it says otherwise.
# UniProt Q8WZA2: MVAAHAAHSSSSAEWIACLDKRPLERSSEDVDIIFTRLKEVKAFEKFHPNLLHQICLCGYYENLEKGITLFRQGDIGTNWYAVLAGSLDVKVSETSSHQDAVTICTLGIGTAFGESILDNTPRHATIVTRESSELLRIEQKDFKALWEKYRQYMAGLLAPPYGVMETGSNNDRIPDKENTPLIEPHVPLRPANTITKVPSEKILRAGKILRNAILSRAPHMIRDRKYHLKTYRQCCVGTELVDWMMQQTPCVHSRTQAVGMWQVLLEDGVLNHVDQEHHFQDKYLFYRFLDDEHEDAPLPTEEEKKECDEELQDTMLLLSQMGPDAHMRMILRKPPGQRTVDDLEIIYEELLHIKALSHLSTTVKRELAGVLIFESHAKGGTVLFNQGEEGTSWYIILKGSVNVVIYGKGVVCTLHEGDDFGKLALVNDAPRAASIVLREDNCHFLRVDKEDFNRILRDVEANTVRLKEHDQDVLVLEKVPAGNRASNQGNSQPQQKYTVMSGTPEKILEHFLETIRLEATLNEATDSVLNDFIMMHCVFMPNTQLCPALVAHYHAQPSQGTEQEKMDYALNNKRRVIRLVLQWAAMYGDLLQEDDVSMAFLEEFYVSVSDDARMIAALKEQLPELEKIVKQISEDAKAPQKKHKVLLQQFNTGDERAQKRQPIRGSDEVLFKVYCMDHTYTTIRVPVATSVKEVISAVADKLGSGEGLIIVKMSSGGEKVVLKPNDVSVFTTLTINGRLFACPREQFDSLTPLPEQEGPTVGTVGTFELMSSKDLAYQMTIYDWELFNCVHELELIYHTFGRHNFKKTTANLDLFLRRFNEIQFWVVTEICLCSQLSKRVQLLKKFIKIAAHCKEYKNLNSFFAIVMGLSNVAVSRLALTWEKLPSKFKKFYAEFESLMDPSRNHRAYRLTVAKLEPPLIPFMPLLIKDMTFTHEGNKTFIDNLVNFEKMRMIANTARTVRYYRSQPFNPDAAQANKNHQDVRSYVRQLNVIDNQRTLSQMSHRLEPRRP
# Inconclusive means that the source gave no clear call. Such entries were picked first, then a sample of the others. Potencies of inconclusive entries are doubtful fits and often do not repeat. Activity calls are given as the source filed them. The call rests on the fitted dose curve; in most records, active means well fitted curve in the direction sought with a large enough effect; inconclusive means small, poorly fitted or top-dose-only effect, or another doubt; inactive means no such curve, though single readings can be large; an effect the other way counts as inactive or inconclusive.
# How the values were obtained:
# [1] = molecular target: Rap guanine nucleotide exchange factor 4 (Homo sapiens) (UniProt Q8WZA2); assay: Confirmatory qHTS for agonist of cAMP-regulated guanine nucleotide exchange factor 4 (EPAC2) (AID 1645884);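 further: nucleotide exchange releases bodipy-GDP from Rap1 and this lowers its fluorescence; nearly all actives have a fitted effect of over 65% in size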; on activation: on the % scale 0 is the no-effect control and ±100 the full control effect
# [2] = molecular target: Rap guanine nucleotide exchange factor 4 (Homo sapiens) (UniProt Q8WZA2); assay: Confirmatory qHTS for antagonist of cAMP-regulated guanine nucleotide exchange factor 4 (EPAC2) (AID 1645885); conditions: activity change, negative = inhibition: at 12.7 µM (top of the series) unless noted; further: nearly all actives have a fitted effect of over 25% in size; on activity change, negative = inhibition: on the % scale 0 is the no-effect control and ±100 the full control effect
# [3] = molecular target: Rap guanine nucleotide exchange factor 3 (Homo sapiens) (UniProt O95398); assay: Counterscreen qHTS for agonist of cAMP-regulated guanine nucleotide exchange factor 3 (EPAC1) (AID 1645889); conditions: EPAC1 Rap1B-BODIPY-GDP exchange, fluorescence; activation: at 154 µM (top of the series) unless noted; further: nearly all actives have a fitted effect of over 40% in size; on activation: % of control where 0% means no effect
# Method in brief: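 Measured: fluorescence of BODIPY-GDP bound to Rap1B, which falls as exchange proceeds. Conditions include 50 uM competing GDP, 5 and 30 min reads, and a later cAMP challenge for antagonist detection.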
# Potency means the concentration at half of the fitted maximal effect.
compound,measurement,setting,value
CC(=O)Nc1ccc(NC(=O)C2Cc3c(-c4ccc5c(c4)OCO5)ccnc3O2)cc1 (stereo unspecified),Potency,[1],"inconclusive: 112 µM [activator, partial curve, poor fit]"
same,Potency,[2],"inconclusive: 60.1 µM [inhibitor, partial curve, poor fit]"
same,Potency,[3],"inconclusive: 12.6 µM [activator, full curve]"
CCN1CCN(c2ccc(S(=O)(=O)N3CCCCC3)cc2NC(=O)C(C)Oc2ccc(F)cc2)CC1 (stereo unspecified),Potency,[1],inactive
same,Potency,[2],inactive
c1ccc(C(c2ccccc2)c2ccn[nH]2)cc1,activation,[1],"inactive: 1.43% [at 17.1 µM, percent relative to cAMP agonist control]"
same,Potency,[2],"inconclusive: 6.01 µM [inhibitor, single point]"
C=CCOc1ccc(/C=N/NC(C)=O)cc1OCC,Potency,[1],"inconclusive: 56.2 µM [activator, partial curve, poor fit]"
same,Potency,[2],"inconclusive: 84.9 µM [inhibitor, single point]"
same,Potency,[3],inactive
O=C(NC1CCC(O)CC1)c1cccc2cccnc12 (stereo unspecified),Potency,[1],inactive
Cc1ccc2c(/C=C/c3c[nH]c4ccccc34)ccnc2c1C,Potency,[1],inactive
same,Potency,[2],"inconclusive: 31.2 µM [inhibitor, partial curve, poor fit]"
Cc1cc(C(=O)NCc2nc(-c3cccc(NC(=O)c4ccccc4)c3)oc2C)nc(C)n1,Potency,[1],inactive
same,Potency,[2],"inconclusive: 13.9 µM [inhibitor, partial curve, poor fit]"
COc1ccc(C(=O)Nc2cc(OC)c(Cl)cc2OC)cc1,activation,[1],"inactive: 4.3% [at 17.1 µM, percent relative to cAMP agonist control]"
Cc1nnc(N2CCC(C(=O)NC3CCCCC3)CC2)c2nn(-c3ccccc3)c(C)c12,Potency,[1],"inconclusive: 56.2 µM [activator, partial curve, poor fit]"
CN(C)c1ccc(/C=C/c2c(Cl)cnc3ccccc23)cc1,Potency,[1],"inconclusive: 2.23 µM [activator, partial curve, poor fit]"
same,Potency,[2],"inconclusive: 55.5 µM [inhibitor, partial curve, poor fit]"
CCN(CC)CC#CCOC(c1ccccc1)c1ccccc1,Potency,[1],"inconclusive: 100 µM [activator, partial curve, poor fit]"
same,Potency,[2],active: 37.9 µM
same,Potency,[3],inactive
COc1ccc(NC(=O)COC(=O)c2ccc(S(=O)(=O)N(C)c3ccccc3OC)cc2)cc1OC,Potency,[1],inactive
same,Potency,[2],"inconclusive: 9.53 µM [inhibitor, partial curve, poor fit]"
same,Potency,[3],"inconclusive: 17.8 µM [activator, partial curve, poor fit]"
C[C@@H]1CN([C@@H](C)CO)C(=O)Cc2cc(NC(=O)C3CCCCC3)ccc2O[C@H]1CN(C)S(=O)(=O)c1ccccc1,Potency,[1],inactive
same,Potency,[2],"inconclusive: 84.9 µM [inhibitor, partial curve, poor fit]"
Cc1ncc(CO)c(/C=N/NC(=O)c2cc(Br)ccc2O)c1O,activation,[1],"inactive: 0% [at 17.1 µM, percent relative to cAMP agonist control]"
same,Potency,[2],inactive
same,Potency,[3],"inconclusive: 0.01 µM [activator, full curve, poor fit]"
O=c1cc(N2CCCCC2)c(-c2ccccc2)nn1Cc1ccccc1,Potency,[1],"inconclusive: 89.1 µM [activator, partial curve, poor fit]"
same,Potency,[2],"inconclusive: 42.6 µM [inhibitor, partial curve]"
same,Potency,[3],"inconclusive: 0.0022 µM [activator, full curve, poor fit]"
O=S(=O)(Nc1ccccc1N1CCCCC1)c1cccs1,Potency,[1],"inconclusive: 112 µM [activator, partial curve, poor fit]"
same,Potency,[2],active: 19 µM
same,activation,[3],inconclusive: 49.1% [activator]
Cc1onc(-c2ccc3c(c2)OCO3)c1-c1ccc2[nH]ccc2c1,Potency,[1],"inconclusive: 56.1 µM [activator, partial curve, poor fit]"
COc1ccc(Cl)cc1NC(=O)CN(C)Cc1ccc(OC)c(OC)c1,Potency,[1],"inconclusive: 100 µM [activator, partial curve, poor fit]"
same,Potency,[2],"inconclusive: 47.8 µM [inhibitor, partial curve, poor fit]"
same,Potency,[3],"inconclusive: 39.8 µM [activator, partial curve]"
O=C1CCN(Cc2ccccc2)CCN1[C@H](COc1ccccc1)Cc1ccccc1,Potency,[1],"inconclusive: 8.89 µM [activator, partial curve, poor fit]"
same,"activity change, negative = inhibition",[2],inconclusive: -31.3% [inhibitor] [at 114 µM]
COc1ccc(-c2noc(CN(C(=O)c3c(-c4ccccc4Cl)noc3C)C(C)C)n2)cc1,Potency,[1],"inconclusive: 56.2 µM [activator, partial curve, poor fit]"
same,Potency,[2],"inconclusive: 26.9 µM [inhibitor, full curve]"
same,Potency,[3],inactive
N#CC1=C2N=C(N)c3c(sc4c3CCCCC4)N2C2=C(C(=O)CCC2)C1c1ccccc1 (stereo unspecified),Potency,[1],"inconclusive: 112 µM [activator, partial curve, poor fit]"

# Reformatted: results already given
compound	measurement	setting	value
CCN1CCN(c2ccc(S(=O)(=O)N3CCCCC3)cc2NC(=O)C(C)Oc2ccc(F)cc2)CC1 (stereo unspecified)	Potency	[1]	inactive
same	Potency	[2]	inactive
